Measurements reported in patent US20100048671A1, “INHIBITION OF THE 44 KILODALTON ISOFORM OF PIM-1 KINASE RESTORES APOPTOSIS INDUCED BY CHEMOTHERAPEUTIC DRUGS IN CANCER CELLS” (priority 2005, published 2010).
These are yes or no findings as the source states them, for the method shown. In cells and extracts the contact can be indirect. Some entries that bind do so weakly or less than the wild type. Tags and fused reporters may be left off the sequences shown.

Target: T1, Myc-tagged BCRP, Q9UNQ0
T1 chain: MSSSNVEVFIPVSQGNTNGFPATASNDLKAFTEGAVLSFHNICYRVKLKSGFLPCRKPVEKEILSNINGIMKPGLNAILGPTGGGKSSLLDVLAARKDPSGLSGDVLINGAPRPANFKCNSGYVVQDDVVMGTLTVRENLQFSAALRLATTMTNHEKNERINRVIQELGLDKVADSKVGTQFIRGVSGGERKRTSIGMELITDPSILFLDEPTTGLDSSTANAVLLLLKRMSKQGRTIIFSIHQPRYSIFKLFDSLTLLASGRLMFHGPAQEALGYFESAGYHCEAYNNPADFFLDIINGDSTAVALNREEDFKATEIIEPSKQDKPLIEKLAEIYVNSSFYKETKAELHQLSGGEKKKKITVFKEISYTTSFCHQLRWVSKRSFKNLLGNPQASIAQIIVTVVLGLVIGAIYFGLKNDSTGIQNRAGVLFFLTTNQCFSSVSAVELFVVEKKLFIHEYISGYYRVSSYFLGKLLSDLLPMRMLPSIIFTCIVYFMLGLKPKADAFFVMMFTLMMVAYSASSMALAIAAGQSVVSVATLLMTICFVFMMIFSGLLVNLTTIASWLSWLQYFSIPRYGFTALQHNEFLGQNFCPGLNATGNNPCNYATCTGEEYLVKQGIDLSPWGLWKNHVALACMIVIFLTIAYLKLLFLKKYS
Assay: co-IP in transfected 293T cells (IP anti-HA, blot anti-Myc; legend of FIG. 18)
Conditions: remark: other sources report otherwise

B1: HA-tagged BCRP (breast cancer resistance protein), Q9UNQ0 1-655 (protein, UniProt Q9UNQ0 1-655, looked up, not shown: small tags and cut ends)
chain: MSSSNVEVFIPVSQGNTNGFPATASNDLKAFTEGAVLSFHNICYRVKLKSGFLPCRKPVEKEILSNINGIMKPGLNAILGPTGGGKSSLLDVLAARKDPSGLSGDVLINGAPRPANFKCNSGYVVQDDVVMGTLTVRENLQFSAALRLATTMTNHEKNERINRVIQELGLDKVADSKVGTQFIRGVSGGERKRTSIGMELITDPSILFLDEPTTGLDSSTANAVLLLLKRMSKQGRTIIFSIHQPRYSIFKLFDSLTLLASGRLMFHGPAQEALGYFESAGYHCEAYNNPADFFLDIINGDSTAVALNREEDFKATEIIEPSKQDKPLIEKLAEIYVNSSFYKETKAELHQLSGGEKKKKITVFKEISYTTSFCHQLRWVSKRSFKNLLGNPQASIAQIIVTVVLGLVIGAIYFGLKNDSTGIQNRAGVLFFLTTNQCFSSVSAVELFVVEKKLFIHEYISGYYRVSSYFLGKLLSDLLPMRMLPSIIFTCIVYFMLGLKPKADAFFVMMFTLMMVAYSASSMALAIAAGQSVVSVATLLMTICFVFMMIFSGLLVNLTTIASWLSWLQYFSIPRYGFTALQHNEFLGQNFCPGLNATGNNPCNYATCTGEEYLVKQGIDLSPWGLWKNHVALACMIVIFLTIAYLKLLFLKKYS
  binding: binds
